# Measurements as given in PubChem BioAssay AID2685 (National Center for Advancing Translational Sciences (NCATS), 2010).
# Hit rate of the full screen: of about 320,000 compounds, about 2,100 (0.66%) were called active. Inconclusive results, whose numbers are uncertain, are shown with a selection of clear calls. Calls come from the whole dose curve; as a rule, active = well fitted inhibition curve with a large enough effect in the signal ratio, with a control signal flat (not every such curve was filed as active); inconclusive = small, poorly fitted or top-dose-only effect, or effect the other way, or a change in a side signal; inactive = flat fitted curve, though single readings scatter; the % refers to the signal ratio. Potencies of inconclusive entries are doubtful fits and often do not repeat.
# Assay: qHTS Assay for Lipid Storage Modulators in Drosophila S3 Cells
# Conditions: BODIPY lipid droplet fluorescence, 18-24 h, cells fed with added oleic acid; lipid storage change, negative = inhibition: at 46.1 µM (top of the series) unless noted
# Procedure, shortened: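 Drosophila S3 cells got compounds at several concentrations plus oleic acid (400 uM solution). Laser-scanning cytometry with 488 nm excitation read lipid droplets at 500-530 nm and cells at 575-640 nm. Percent activity was relative to 20 uM Triacsin C.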
# % is set by controls: 0 for no effect and ±100 for the full control effect; potency is the fitted concentration of half-maximal effect.
SMILES,Potency,"lipid storage change, negative = inhibition"
Cc1ccccc1NC(=O)NC(N)=O,"inconclusive: 25.9 µM [activator, single point]",–
CCC(C)c1ccc(NC(=O)c2[nH]c(C)c(C(C)=O)c2C)cc1 (configuration not stated),"inconclusive: 0.0411 µM [falling, full curve, poor fit]",–
N#Cc1cccc(NC(=O)NCCc2c[nH]c3ccccc23)c1,"inconclusive: 5.8 µM [activator, partial curve]",–
O=C(O)c1ccc(S(=O)(=O)N2CCC3(CC2)CC(=O)c2ccccc2O3)cc1,–,inconclusive: 24.8% [at 0.0737 µM]
O=C(CCN1C(=O)c2ccccc2S1(=O)=O)N1CCN(c2ccccc2F)CC1,–,inconclusive
O=C(NCc1ccccc1Cl)NC(=O)c1csc([N+](=O)[O-])c1,–,inconclusive: 14.8%
CCCNC(=O)COC(=O)/C=C/c1ccco1,–,inconclusive: 19.4%
CSc1nnc(-c2cccs2)n1-c1ccccc1,–,inconclusive: 35.6%
COc1ccc(C(=O)COC(=O)/C=C/c2ccccc2)c(OC)c1,"inconclusive: 6.51 µM [activator, single point]",–
COc1ccccc1NS(=O)(=O)c1cccc(NC(=O)c2ccc3ccccc3n2)c1,–,inconclusive: -11.3%
O=C1C(=O)N(Cc2cccs2)c2ccccc21,–,inconclusive: -78.6%
O=C(CSc1nc2[nH]c(=O)cc(O)c2s1)Nc1nccs1,"inconclusive: 0.0041 µM [activator, full curve, poor fit]",–
Cc1ccc(C(=O)NC(=S)Nc2ccc(S(=O)(=O)N(C)c3ccccc3)cc2)cc1,"inconclusive: 16.4 µM [activator, single point]",–
C=CCn1c(SCc2ccc(F)cc2)nnc1-c1sc2nc(C)cc(C)c2c1N,–,inconclusive: 14%
CNC(=O)C(C)Sc1ccc(S(=O)(=O)N2CCOCC2)cn1 (configuration not stated),–,inconclusive: -5.84%
CCOc1ccc(C(=O)NN2C(=S)NC(C)(C)C=C2C)cc1,–,inconclusive: -20.4%
CNC(=O)CSc1cnc2ccccc2n1,–,inconclusive: 8.75%
CC1CN(CCCSc2ccc(Cl)cc2)CC(C)O1 (configuration not stated),–,inconclusive: 18.3%
CCC1CCCCN1S(=O)(=O)c1ccc(NC(=O)C2CCN(C(=O)c3ccco3)CC2)cc1 (configuration not stated),–,inconclusive: 15.6%
Cc1cc(C)c2c(=O)[nH]c(=O)n(Cc3ccccc3)c2n1,–,inconclusive: 20.8% [at 9.22 µM]
O=C(CCCO)CCCCCCCCC[C@H]1N[C@H](CO)[C@@H](O)[C@@H]1O,–,inconclusive: -3.17%
CCc1nc(C)cn1S(=O)(=O)c1cc(Br)ccc1OC,"inconclusive: 18.4 µM [cytotoxic, single point]",–
Cc1sc2ncn(CC(=O)NCCCC(=O)N3CCN(c4ccccc4F)CC3)c(=O)c2c1C,–,inconclusive: 82.4%
Cc1ccc(/C=N/NC(=O)C[n+]2ccccc2)o1,"inconclusive: 0.116 µM [falling, full curve, poor fit]",–
O=C1Cn2c(nc3ccccc32)N1c1ccccc1F,"inconclusive: 0.231 µM [falling, full curve]",–
Cc1cc(-n2c(=O)c(C#N)cc3c(=O)n4cccc(C)c4nc32)no1,"inconclusive: 0.517 µM [activator, full curve]",–

SMILES,Potency,"lipid storage change, negative = inhibition"
Cc1ccc([N+](=O)[O-])cc1NC(=O)c1ccc2c(c1)OCO2,–,inconclusive: 14.3%
COc1ccc(-n2c(SCC(=O)Nc3ccc(C)cc3)nc(O)c(Cc3ccccc3)c2=O)cc1,–,inconclusive: 140%
Cc1cccc(NC(=O)C2CCN(c3nccc(C)n3)CC2)c1,"inconclusive: 0.82 µM [activator, full curve, poor fit]",–
N/C(Cc1cccs1)=N\OC(=O)COc1ccccc1,–,inconclusive: 2.69%
CC(C)N(C(=S)NCc1ccccc1)c1ccccc1,–,inconclusive: 8.59%
O=C(NC1CCCCC1)C1CCC(=O)N(Cc2cccc(C(F)(F)F)c2)C1 (configuration not stated),–,inconclusive: -3.83%
CC(C)(C)C(=O)N1CCN(c2ccc(NC(=O)c3ccc4c(c3)OCCO4)cc2)CC1,active: 16.4 µM,–
CCN(CC)S(=O)(=O)c1ccc(OC)c(NC(=O)CCS(=O)(=O)Cc2ccccc2)c1,–,inconclusive: -1.82%
CCCn1c(=NC(=O)c2ccc3c(c2)OCO3)c(C#N)cc2c(=O)n3cccc(C)c3nc21,"inconclusive: 0.206 µM [activator, partial curve, poor fit]",–
Cc1nc2c(C#N)cnn2c2c1CCNN2C,–,inconclusive: -63.3% [at 0.00295 µM]
NC(=O)NCCCC(=O)O,–,inactive
CC(C)(C)c1ccc(C2(C)NC(=O)NC2=O)cc1 (configuration not stated),"inconclusive: 29.1 µM [falling, single point]",–
O=Cc1cccc(Oc2ccc([N+](=O)[O-])cc2[N+](=O)[O-])c1,–,inconclusive: -40.5%
CCc1nc(N2CCOCC2)c(C#N)c2c1COC(C)(C)C2,–,inconclusive: 7.24%
Cc1noc(/C=C/c2cccs2)c1S(=O)(=O)N1CCC(C(=O)NCCCN2CCC(C)CC2)CC1,–,inconclusive: 6.99%
Cc1[nH]nc2c1C(c1cccs1)C(C#N)=C(N)O2 (configuration not stated),–,inconclusive: 42.2%
COc1cc2[nH]c(=S)nc(NCc3ccc(Cl)cc3)c2cc1OC,–,inconclusive: -31.3%
Cc1ccc(NC2=NC(c3ccc(F)cc3)n3c(nc(C)cc3=O)N2)cc1 (configuration not stated),–,inconclusive: 11.8%
O=C(CCCc1nc(-c2ccccc2Cl)no1)NC1CCCCC1,–,inconclusive: 16%
CN(c1ccccc1)S(=O)(=O)c1cccc(NC(=O)CC(C)(C)C)c1,"inconclusive: 6.51 µM [activator, single point]",–
CCOC(=O)c1c(-c2ccccc2)nnn1-c1nc(OC)nc(N2CCOCC2)n1,–,inconclusive: 9.49%
O=C(Nc1nnc(COc2ccc(Cl)cc2)s1)c1ccco1,–,inconclusive: 0.499%
COC(=O)NC(=S)Nc1ccc(Oc2ccc(Cl)cc2Cl)c(Cl)c1,"inconclusive: 25.9 µM [cytotoxic, single point]",–
CCCC(C(=O)NCC1CCCO1)N(Cc1ccccc1)C(=O)CNS(=O)(=O)c1ccccc1 (configuration not stated),"inconclusive: 0.103 µM [falling, full curve, poor fit]",–
Cc1cc(C)c(NC(=O)CN(C)CC(=O)N(C)CC(=O)Nc2c(Cl)cccc2Cl)c(C)c1,"inconclusive: 6.51 µM [falling, partial curve, poor fit]",–
CN1CCN(C(=S)NC(=O)c2ccc(Cl)cc2)CC1,–,inconclusive: 6.13%

SMILES,Potency,"lipid storage change, negative = inhibition"
O=C(CCSc1ccccc1)Nc1ccc(S(=O)(=O)N2CCOCC2)cc1,–,inconclusive: -12.5%
CCC(=O)Nc1ccc2c(c1)N(C(C)=O)c1ccccc1CC2,–,inconclusive: -56.5%
O=C(Nc1nccs1)c1ccc(Br)o1,–,inconclusive: 18%
CCN(CC)C(=O)C1CC(=O)N(c2ccc(F)c(Cl)c2)C1 (configuration not stated),–,inconclusive: 95.6%
COc1ccccc1C(=O)Nc1nc2ccccc2s1,"inconclusive: 29.1 µM [falling, single point]",–
CCCSc1cc(NCCOC(=O)CCC)c([N+](=O)[O-])c2nonc12,"inconclusive: 29.1 µM [cytotoxic, single point]",–
Cc1cc(C(=O)C(=O)NC(C)C)c(C)n1-c1ccc([N+](=O)[O-])cc1,–,inconclusive: 18.4%
CCNC(=S)NC(=NCc1cccnc1)Nc1nc(C)cc(C)n1,–,inconclusive: -191%
COc1ccc(OC)c(C(=O)CSc2nc3c(c(=O)n(C)c(=O)n3C)n2C(C)C)c1,–,inconclusive: -1.86%
C=CCn1c(N)c(-c2nc3ccccc3n2C)sc1=S,"inconclusive: 6.51 µM [activator, single point]",–
Cc1ccc(Cn2c(C(=O)NCCCN3CCOCC3)cc3sccc32)cc1,–,inconclusive: -29%
CCN1CCN(C(CNS(=O)(=O)c2ccc(OC)c(C)c2)c2cccnc2)CC1 (configuration not stated),–,inconclusive: 51.9%
NC(=O)c1ccc(NC(=O)COC(=O)c2ccc3c(c2)OCO3)cc1,–,inconclusive: 59.5%
COc1cc2cc(C(=O)N(C)C3CCS(=O)(=O)C3)[nH]c2cc1OC (configuration not stated),"inconclusive: 23.1 µM [activator, single point]",–
CC(OC(=O)Cc1ccccc1[N+](=O)[O-])C(=O)Nc1ccc(Cl)cn1 (configuration not stated),–,inconclusive
O=C(OC(C(=O)NC1CCCCC1)c1ccc(C(F)(F)F)cc1)c1ccco1 (configuration not stated),–,inconclusive
COc1ccc(-n2c(Cc3cc(=O)[nH]c(=O)[nH]3)nnc2SCC(=O)NC2CCCC2)cc1,–,inconclusive: -48.5%
Cc1noc(C)c1CN1C(=O)NC2(CCc3ccccc3C2)C1=O (configuration not stated),"inconclusive: 6.51 µM [activator, single point]",–
CCCCCCN(C(=O)CCCCCN1C(=O)NC(c2ccc(-c3ccccc3)cc2)C(C(=O)OCc2ccccc2)=C1C)C(C(=O)NCCCC)c1cccc(C(=O)OC)c1 (configuration not stated),–,inconclusive: 9.15%
O=C(CCl)Oc1ccc2occ(C(=O)c3cccs3)c2c1,–,inconclusive: -12.7%
CCOC(=O)C1=C(COC(=O)CNC(=O)c2cc(OC)c(OC)c(OC)c2)NC(=O)NC1C (configuration not stated),–,inconclusive
CCCCn1nnnc1SCC(=O)Nc1ccc2c(c1)OCCO2,–,inconclusive: 54.7%
CCOc1cccc2sc(N(CCCN(C)C)C(=O)c3ccc(C(=O)c4ccccc4)cc3)nc12,–,inconclusive: -3.38%
CN(CC(=O)Nc1ccccc1F)Cc1cccs1,"inconclusive: 0.517 µM [activator, partial curve, poor fit]",–
COc1ccc(CC(=O)N2CCc3cc(OC)c(OC)cc3C2)cc1,"inconclusive: 0.13 µM [falling, full curve, poor fit]",–

# Some values from the results shown:
# O=Cc1cccc(Oc2ccc([N+](=O)[O-])cc2[N+](=O)[O-])c1 – lipid storage change, negative = inhibition: inconclusive: -40.5%
# Cc1noc(/C=C/c2cccs2)c1S(=O)(=O)N1CCC(C(=O)NCCCN2CCC(C)CC2)CC1 – lipid storage change, negative = inhibition: inconclusive: 6.99%
# Cc1ccc(/C=N/NC(=O)C[n+]2ccccc2)o1 – Potency: inconclusive: 0.116 µM [falling, full curve, poor fit]
# CCN(CC)C(=O)C1CC(=O)N(c2ccc(F)c(Cl)c2)C1 (configuration not stated) – lipid storage change, negative = inhibition: inconclusive: 95.6%
